From PubChem BioAssay AID248 (DTP/NCI, 2004) come the findings set out here.

In the experiment the test system is L1210 leukemia ip in BDF1 mice, survival T/C. The experiment in a line: NCI In Vivo Anticancer Drug Screen. Data for tumor model L1210 Leukemia (intraperitoneal) in B6D2F1 (BDF1) mice. The settings on record: T/C endpoint: mean survival time, higher T/C = longer survival.
Setting [1] is: dose: 150.0 mg/kg/injection, schedule: Q01DX001 (ip), vehicle: saline.
Where [2] appears, read: dose: 300.0 mg/kg/injection, schedule: Q01DX001 (ip), vehicle: saline.
The mark [3] stands for this setting: dose: 200.0 mg/kg/injection, schedule: Q01DX009 (ip), vehicle: Klucel (hydroxypropylcellulose) (HPC).
Setting [4] is: dose: 400.0 mg/kg/injection, schedule: Q01DX009 (ip), vehicle: saline.
[5] abbreviates: dose: 400.0 mg/kg/injection, schedule: Q01DX009 (ip), vehicle: Klucel (hydroxypropylcellulose) (HPC).
Setting [6] is: dose: 400.0 mg/kg/injection, schedule: Q01DX001 (ip), vehicle: acetone.
Setting [7] is: dose: 400.0 mg/kg/injection, schedule: Q04DX002 (ip), vehicle: Klucel (hydroxypropylcellulose) (HPC).
Where [8] appears, read: dose: 200.0 mg/kg/injection, schedule: Q01DX009 (ip), vehicle: saline with Tween-80.

The list is a part of this screen's results and no random one: it is rich in T/C values a quarter to a half above the control, in often repeated tests (any T/C) and in doses without a T/C. Other doses and runs of a compound stand elsewhere. T/C gives the treated animals as a percentage of the vehicle group. Some doses have a count of surviving animals in place of a T/C: the source files T/C as zero there, which appears to mark a toxic dose or a test without result, not a measured value. Some survivor counts are full or nearly so, which does not show that the dose was tolerated: the source hardly ever lists a survival T/C far under the control, and the zero likely stands for such cases as well. Counts of survivors are from the toxicity check (mostly the fifth day) where no day follows; animals may have died later. Schedules are NCI's codes, taken here to give the interval after Q, in days (D) or hours (H), and the number of doses after X. Some molecules as drawn cover several salts, stereoisomers or complexes of the source; a dose is that of the sample tested. Where survival is the endpoint, this PubChem deposit counts one and a half times the control or more as active, and values a quarter to a half above the control carry no call in these data; other NCI protocols may use other cut-offs. Some doses were run more than once; the results are listed from low to high. Some T/C values are followed by the survivors on the day toxicity was checked, most often the fifth; where none is given, no animal had died by that day.

`COc1cc(N)c2ncccc2c1`: the survivor count by setting is: (dose: 60.0 mg/kg/injection, schedule: Q01DX001 (ip), vehicle: saline) 1 of 6; (dose: 75.0 mg/kg/injection, schedule: Q01DX001 (ip), vehicle: saline) 2 of 6; (dose: 150.0 mg/kg/injection, schedule: Q01DX001 (ip), vehicle: carboxymethylcellulose (CMC)) 3 of 6; under setting [1], 0 of 6; (dose: 300.0 mg/kg/injection, schedule: Q01DX001 (ip), vehicle: carboxymethylcellulose (CMC)) 0 of 6; under setting [2], 0 of 6.

Turning to `O=C(Nc1cccc(C(F)(F)F)c1)Nc1cc([N+](=O)[O-])ccc1Cl`, under setting [3], the survivor count is 6 of 6.

In the case of `O=c1c(O)c(-c2ccc(O)c(O)c2)oc2cc(O)cc(O)c12`, the survivor count was 1 of 6 under setting [4]; 4 of 6 (dose: 800.0 mg/kg/injection, schedule: Q01DX009 (ip), vehicle: saline); 0 of 6 (dose: 1600.0 mg/kg/injection, schedule: Q01DX009 (ip), vehicle: saline).

Take `CCN(C(=O)Nc1ccc(SC)cc1)c1ccccc1`: the survivor count under setting [5] is 5 of 6.

`S=C=Nc1cccc(N=C=S)c1`: the survivor count runs as follows: (dose: 40.0 mg/kg/injection, schedule: Q01DX001 (ip), vehicle: acetone) 0 of 4; (dose: 50.0 mg/kg/injection, schedule: Q01DX001 (ip), vehicle: acetone) 0 of 4; (dose: 80.0 mg/kg/injection, schedule: Q01DX001 (ip), vehicle: acetone) 0 of 4; (dose: 100.0 mg/kg/injection, schedule: Q01DX001 (ip), vehicle: acetone) 0 of 4; (dose: 200.0 mg/kg/injection, schedule: Q01DX001 (ip), vehicle: acetone) 0 of 4; under setting [6], 0 of 4.

As to `O=C(c1ccccc1)C1CCCC1`, the survivor count under setting [7] is 3 of 3.

Regarding `Nc1ccc(Nc2ccccc2)c(N)c1`, the survivor count is, setting by setting: (dose: 150.0 mg/kg/injection, schedule: Q01DX009 (ip), vehicle: saline) 1 of 6; (dose: 300.0 mg/kg/injection, schedule: Q04DX003 (ip), vehicle: saline) 3 of 6.

In the case of `Cc1cc(Cl)cc2sc(=S)[nH]c12`, the T/C under setting [5] was 134 % of control [2 of 3 alive].

`COc1cc2c(cc1OC)C(Cc1ccc(Oc3ccc(Cc4c5c(cc(OC)c4OC)CC[N+](C)(C)C5)cc3)cc1)[N+](C)(C)CC2` (stereo not drawn): the survivor count is given as 1 of 3 (dose: 6.25 mg/kg/injection, schedule: Q04DX002 (ip), vehicle: saline with Tween-80); 0 of 3 (dose: 12.5 mg/kg/injection, schedule: Q04DX002 (ip), vehicle: saline with Tween-80); 0 of 3 (dose: 25.0 mg/kg/injection, schedule: Q04DX002 (ip), vehicle: saline with Tween-80); 0 of 3 (dose: 100.0 mg/kg/injection, schedule: Q04DX002 (ip), vehicle: saline with Tween-80); 0 of 3 (dose: 200.0 mg/kg/injection, schedule: Q04DX002 (ip), vehicle: saline with Tween-80); 0 of 3 (dose: 400.0 mg/kg/injection, schedule: Q04DX002 (ip), vehicle: saline with Tween-80).

For the molecule `C=CCc1ccc(OC(=O)Nc2ccccc2C)c(OC)c1`, the survivor count under setting [5] is recorded as 1 of 6.

As for `CCCP(=S)(CCC)CCC`, the survivor count (dose: 400.0 mg/kg/injection, schedule: Q01DX001 (ip), vehicle: saline with Tween-80) is reported as 2 of 6.

Consider `O=C(O)c1cc(OCc2ccccc2)cc(OCc2ccccc2)c1`, for which the survivor count is, setting by setting: (dose: 200.0 mg/kg/injection, schedule: Q01DX009 (ip), vehicle: carboxymethylcellulose (CMC)) 3 of 3; (dose: 400.0 mg/kg/injection, schedule: Q01DX009 (ip), vehicle: carboxymethylcellulose (CMC)) 3 of 3.

Regarding `COc1cc2cnc3c4cc(OC)c(OC)cc4ccc3c2cc1OC`, under setting [4], the survivor count is 5 of 6.

For the molecule `O=S(=O)(Nc1cc(Cl)c(NS(=O)(=O)c2ccccc2)c2ccccc12)c1ccccc1`, where the note is “dose: 300.0 mg/kg/injection, schedule: Q01DX009 (ip), vehicle: Klucel (hydroxypropylcellulose) (HPC)”, the survivor count is given as 6 of 6.

With `Cn1c(=O)c2ccccc2c2cc(Cl)ccc21`, the survivor count by setting is: under setting [3], 3 of 6; under setting [5], 3 of 6.

For `CCOc1ccc2c(ccc(/C=C\c3ccc(O)c4ccccc34)[n+]2C)c1`, under setting [2], the survivor count was 2 of 6.

Consider `C/C(=C\C(=O)O)CBr`, for which, under setting [8], the survivor count is on record as 1 of 3.

In the case of `O=C1c2ccccc2C(O)(O)C1(O)C1(O)C(=O)c2ccccc2C1(O)O` (stereo not drawn), the survivor count (dose: 400.0 mg/kg/injection, schedule: Q01DX001 (ip), vehicle: carboxymethylcellulose (CMC)) is on record as 0 of 4.

Turning to `CN(Cc1ccccc1O)C1CCCCC1`, the survivor count is 3 of 6 under setting [1] and 0 of 6 under setting [2].

With `CCC(C)N=Cc1ccccc1O.CCC(C)N=Cc1ccccc1O.[Cu]` (stereo not drawn), the survivor count was 1 of 6 (dose: 75.0 mg/kg/injection, schedule: Q01DX001 (ip), vehicle: other); 1 of 6 (dose: 150.0 mg/kg/injection, schedule: Q01DX001 (ip), vehicle: other); 0 of 6 (dose: 300.0 mg/kg/injection, schedule: Q01DX001 (ip), vehicle: other).

As for `Nc1nc(SCc2ccccn2)c2[nH]cnc2n1`, the T/C runs as follows: (dose: 25.0 mg/kg/injection, schedule: Q04DX003 (ip), vehicle: Klucel (hydroxypropylcellulose) (HPC)) 138 % of control; (dose: 50.0 mg/kg/injection, schedule: Q04DX003 (ip), vehicle: Klucel (hydroxypropylcellulose) (HPC)) 138 % of control; (dose: 100.0 mg/kg/injection, schedule: Q04DX003 (ip), vehicle: Klucel (hydroxypropylcellulose) (HPC)) 134 and 145 % of control; (dose: 150.0 mg/kg/injection, schedule: Q04DX003 (ip), vehicle: Klucel (hydroxypropylcellulose) (HPC)) 134 % of control; (dose: 200.0 mg/kg/injection, schedule: Q04DX003 (ip), vehicle: Klucel (hydroxypropylcellulose) (HPC)) 144 % of control; (dose: 600.0 mg/kg/injection, schedule: Q04DX003 (ip), vehicle: Klucel (hydroxypropylcellulose) (HPC)) 139 % of control.

`O=C(O)C(Br)CO` (stereo not drawn) (tested in a mixture with another compound): under setting [6], the survivor count is given as 2 of 6.

Turning to `CC(=O)OCC1OC(N2C(=O)/C(=C/c3cccnc3)SC2=S)C(OC(C)=O)C(OC(C)=O)C1OC(C)=O` (stereo not drawn), the survivor count (dose: 400.0 mg/kg/injection, schedule: Q01DX005 (ip), vehicle: other) is listed as 0 of 6.

As for `NC(=S)NN=C1CCCCC1`, the survivor count is 1 of 4 (dose: 40.0 mg/kg/injection, schedule: Q01DX001 (ip), vehicle: carboxymethylcellulose (CMC)); 0 of 4 (dose: 80.0 mg/kg/injection, schedule: Q01DX001 (ip), vehicle: carboxymethylcellulose (CMC)); 1 of 6 (dose: 100.0 mg/kg/injection, schedule: Q01DX009 (ip), vehicle: saline with Tween-80); 0 of 6 under setting [8]; 0 of 6 (dose: 400.0 mg/kg/injection, schedule: Q01DX009 (ip), vehicle: saline with Tween-80).

For the molecule `Cc1ccc2c(ccc3c[n+]4ccccc4c(C)c32)c1`, the survivor count is recorded as 1 of 4 (dose: 50.0 mg/kg/injection, schedule: Q01DX001 (ip), vehicle: carboxymethylcellulose (CMC)) and 0 of 4 (dose: 100.0 mg/kg/injection, schedule: Q01DX001 (ip), vehicle: carboxymethylcellulose (CMC)).

Turning to `O=c1o[nH]c(-c2ccccc2)c1-c1ccccc1`, the survivor count was 6 of 6 (dose: 25.0 mg/kg/injection, schedule: Q04DX003 (ip), vehicle: saline); 6 of 6 (dose: 50.0 mg/kg/injection, schedule: Q04DX003 (ip), vehicle: saline); 6 of 6 (dose: 100.0 mg/kg/injection, schedule: Q04DX003 (ip), vehicle: saline with Tween-80); 3 of 6 (dose: 400.0 mg/kg/injection, schedule: Q04DX003 (ip), vehicle: saline with Tween-80).

For `NC1C(=O)NC(=O)NC1=O`, under setting [7], the survivor count was 0 of 3.
